Record: PubChem BioAssay AID1159578 (Peter MacCallum Cancer Centre, 2015)

- Test: 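Knock-downs that alter how fast lymphatic endothelial cells migrate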 (primary screen)
- System: human lymphatic endothelial cells
- Reagents: siRNA pool against human genes, 40 nM
- Timing: 48 h after transfection
- Measured: 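High-content imaging of dye-stained cells in a scratch assay measures filled wound area and nuclei per well; duplicate means given as ratio to mock and robust z-score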
- Reading the numbers: migration robust z-score: higher = faster migration into the scratch; nuclei per well: higher = more cells in the well
- Call rule: 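Pools averaging fewer than 3300 nuclei are never called; remaining pools count as changed when migration robust z lies outside -2 to 2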
- Meaning of the calls: active = migration changed; inactive = no migration change, or too few cells
The whole screen tested about 18,000 reagents; this is an unselected part. In the full data, about 1,030 (5.7%) were called active. 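Inactive calls also include pools with fewer than 3300 nuclei, whose migration was not assessed.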 Raw values vary from plate to plate and are shown uncorrected. Further read-outs or replicates are left out here.

{"gene symbol": "SLC35F6", "migration robust z-score": -0.24, "nuclei per well, duplicate mean": 5684, "Outcome": "inactive"}
{"gene symbol": "SELENOF", "migration robust z-score": 0.07, "nuclei per well, duplicate mean": 6128, "Outcome": "inactive"}
{"gene symbol": "FBXL22", "migration robust z-score": 0.62, "nuclei per well, duplicate mean": 5724, "Outcome": "inactive"}
{"gene symbol": "KCNV1", "migration robust z-score": 0.13, "nuclei per well, duplicate mean": 4736, "Outcome": "inactive"}
{"gene symbol": "NANOS1", "migration robust z-score": -0.9, "nuclei per well, duplicate mean": 4238, "Outcome": "inactive"}

Targets listed so far whose gene name starts with S or s (2):
{"gene symbol": "SLC35F6", "migration robust z-score": -0.24, "nuclei per well, duplicate mean": 5684, "Outcome": "inactive"}
{"gene symbol": "SELENOF", "migration robust z-score": 0.07, "nuclei per well, duplicate mean": 6128, "Outcome": "inactive"}

Continued:
{"gene symbol": "PDE6H", "migration robust z-score": 0.1, "nuclei per well, duplicate mean": 4838, "Outcome": "inactive"}
{"gene symbol": "ADORA2A", "migration robust z-score": 0.34, "nuclei per well, duplicate mean": 5756, "Outcome": "inactive"}
{"gene symbol": "ZNF12", "migration robust z-score": 0.5, "nuclei per well, duplicate mean": 6084, "Outcome": "inactive"}
{"gene symbol": "C2CD4A", "migration robust z-score": -1.98, "nuclei per well, duplicate mean": 5846, "Outcome": "inactive"}
{"gene symbol": "ST7L", "migration robust z-score": -1.14, "nuclei per well, duplicate mean": 5400, "Outcome": "inactive"}
{"gene symbol": "ASAH2B", "migration robust z-score": -0.76, "nuclei per well, duplicate mean": 5516, "Outcome": "inactive"}
{"gene symbol": "PNMA6A", "migration robust z-score": -1.76, "nuclei per well, duplicate mean": 5230, "Outcome": "inactive"}
{"gene symbol": "HADHB", "migration robust z-score": -1.04, "nuclei per well, duplicate mean": 3824, "Outcome": "inactive"}
{"gene symbol": "ARMC3", "migration robust z-score": -0.17, "nuclei per well, duplicate mean": 5023, "Outcome": "inactive"}
